# In paper PMC8824665, “Rapid Assessment of Insect Steroid Hormone Entry Into Cultured Cells” (Frontiers in Physiology, 2022):
# These are yes or no findings as the source states them, for the method shown. Binding seen in cells or lysates may run through a third protein. Some results given as binding are weak or reduced against the parent protein; the word gives no strength.
# T1: Ultraspiracle (USP) with C-terminus SmBiT (D. melanogaster) (UniProt P20153)
# T1 sequence: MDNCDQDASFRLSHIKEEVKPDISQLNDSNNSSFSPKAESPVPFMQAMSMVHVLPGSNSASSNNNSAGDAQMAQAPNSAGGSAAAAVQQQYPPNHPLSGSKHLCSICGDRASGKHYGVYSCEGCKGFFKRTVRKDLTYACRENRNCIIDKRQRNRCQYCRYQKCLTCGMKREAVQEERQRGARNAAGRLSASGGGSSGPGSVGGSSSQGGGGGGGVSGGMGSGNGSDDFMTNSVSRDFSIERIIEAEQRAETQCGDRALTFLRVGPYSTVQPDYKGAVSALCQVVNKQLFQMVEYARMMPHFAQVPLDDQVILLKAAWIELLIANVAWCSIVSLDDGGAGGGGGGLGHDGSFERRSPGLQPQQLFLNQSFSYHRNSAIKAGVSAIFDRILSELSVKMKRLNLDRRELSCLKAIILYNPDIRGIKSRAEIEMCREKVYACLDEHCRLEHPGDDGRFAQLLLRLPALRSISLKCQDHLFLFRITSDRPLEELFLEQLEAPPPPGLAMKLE
# B1: Ecdysone receptor (EcR) with a C-terminal LgBiT (receptor, UniProt P34021 1-878)
# chain: MKRRWSNNGGFMRLPEESSSEVTSSSNGLVLPSGVNMSPSSLDSHDYCDQDLWLCGNESGSFGGSNGHGLSQQQQSVITLAMHGCSSTLPAQTTIIPINGNANGNGGSTNGQYVPGATNLGALANGMLNGGFNGMQQQIQNGHGLINSTTPSTPTTPLHLQQNLGGAGGGGIGGMGILHHANGTPNGLIGVVGGGGGVGLGVGGGGVGGLGMQHTPRSDSVNSISSGRDDLSPSSSLNGYSANESCDAKKSKKGPAPRVQEELCLVCGDRASGYHYNALTCEGCKGFFRRSVTKSAVYCCKFGRACEMDMYMRRKCQECRLKKCLAVGMRPECVVPENQCAMKRREKKAQKEKDKMTTSPSSQHGGNGSLASGGGQDFVKKEILDLMTCEPPQHATIPLLPDEILAKCQARNIPSLTYNQLAVIYKLIWYQDGYEQPSEEDLRRIMSQPDENESQTDVSFRHITEITILTVQLIVEFAKGLPAFTKIPQEDQITLLKACSSEVMMLRMARRYDHSSDSIFFANNRSYTRDSYKMAGMADNIEDLLHFCRQMFSMKVDNVEYALLTAIVIFSDRPGLEKAQLVEAIQSYYIDTLRIYILNRHCGDSMSLVFYAKLLSILTELRTLGNQNAEMCFSLKLKNRKLPKFLEEIWDVHAIPPSVQSHLQITQEENERLERAERMRASVGGAITAGIDCDSASTSAAAAAAQHQPQPQPQPQPSSLTQNDSQHQTQPQLQPQLPPQLQGQLQPQLQPQLQTQLQPQIQPQPQLLPVSAPVPASVTAPGSLSAVSTSSEYMGGSAAIGPITPATTSSITAAVTASSTTSAVPMGNGVGVGVGVGGNVSMYANAQTAMALMGVALHSHQEQLIGGVAVKSEHSTTA
# Target: T1, Ultraspiracle (USP) with C-terminus SmBiT (D. melanogaster)
# Test: split reporter; live HEK293T cells transfected with a NanoBiT plasmid pair (combinations 1-8) and an EcI-containing plasmid; luminescence read every minute at 37°C before and after vehicle (EtOH) or 10 μM 20E; relative to the baseline before treatment
binder,measurement,value
B1,binding,binds
